Results: patent US20250042948 (published 2025)

Test: general procedure: solution-phase peptide synthesis; PyOxim/2,4,6 collidine; PyOxim/NMM; TOTU/NMM; Oxyma-EDC*HCl/NMM
[1] = late stage modification step, HPLC

Fmoc-Ala-Cys[Ψ(Dmp,H)pro]-Thr(tBu)-Gly-Cys[Ψ(Dmp,H)pro]-Tyr(tBu)-OtBu
step yield (coupling step): 93% | crude HPLC purity (coupling step, HPLC): 91.9%

Fmoc-Asn(Trt)-Pro-Ala-Cys[Ψ(Dmp,H)pro]-Thr(tBu)-Gly-Cys[Ψ(Dmp,H)pro]-Tyr(tBu)-OtBu
step yield (coupling step): 98% | crude HPLC purity (coupling step, HPLC): 87.3%

Fmoc-Cys(SO3Na)-Cys(SO3Na)-Glu(tBu)-Tyr(tBu)-Cys(SO3Na)-Cys(Trt)-Asn(Trt)-Pro-Ala-Cys[Ψ(Dmp,H)pro]-Thr(tBu)-Gly-Cys[Ψ(Dmp,H)pro]-Tyr(tBu)-OtBu
crude HPLC purity (coupling step, HPLC): 66.7%

Fmoc-Cys(SO3Na)-Cys(SO3Na)-Glu(tBu)-Tyr(tBu)-OH
step yield (coupling step): 65% | crude HPLC purity (coupling step, HPLC): 94.3%

Fmoc-Cys(Trt)-Asn(Trt)-Pro-Ala-Cys[Ψ(Dmp,H)pro]-Thr(tBu)-Gly-Cys[Ψ(Dmp,H)pro]-Tyr(tBu)-OtBu
step yield (coupling step): 95% | crude HPLC purity (coupling step, HPLC): 84.3%

Fmoc-Thr(tBu)-Gly-Cys[Ψ(Dmp,H)pro]-Tyr(tBu)-OtBu
step yield (coupling step): 87% | crude HPLC purity (coupling step, HPLC): 93.9%

H-Ala-Cys[Ψ(Dmp,H)pro]-Thr(tBu)-Gly-Cys[Ψ(Dmp,H)pro]-Tyr(tBu)-OtBu
step yield (late stage modification step): 91% | crude HPLC purity [1]: 90.3%

H-Asn(Trt)-Pro-Ala-Cys[Ψ(Dmp,H)pro]-Thr(tBu)-Gly-Cys[Ψ(Dmp,H)pro]-Tyr(tBu)-OtBu
step yield (late stage modification step): 89% | crude HPLC purity [1]: 89.0%

H-Cys(SO3H)-Cys(SO3H)-Glu-Tyr-Cys(SO3H)-Cys-Asn-Pro-Ala-Cys-Thr-Gly-Cys-Tyr-OH TFA salt
crude HPLC purity (late stage modification step, HPLC, TFA salt): 57.9% | step yield (late stage modification step, TFA salt): 92%

H-Cys(SO3Na)-Cys(SO3Na)-Glu(tBu)-Tyr(tBu)-Cys(SO3Na)-Cys(Trt)-Asn(Trt)-Pro-Ala-Cys[Ψ(Dmp,H)pro]-Thr(tBu)-Gly-Cys[Ψ(Dmp,H)pro]-Tyr(tBu)-OtBu
step yield (late stage modification step): 89% | crude HPLC purity [1]: 61.7%

H-Cys(SO3Na)-Cys(Trt)-Asn(Trt)-Pro-Ala-Cys[Ψ(Dmp,H)pro]-Thr(tBu)-Gly-Cys[Ψ(Dmp,H)pro]-Tyr(tBu)-OtBu
step yield (coupling step): 83% | crude HPLC purity (coupling step, HPLC): 82.9%

Linaclotide
crude HPLC purity (oxidative folding step, HPLC): 53.8% | oxidative folding yield (oxidative folding step, cyclization yield): 72% | final HPLC purity (purification step, HPLC): 99.97% | final HPLC purity (purification step, Ion-Pairing Chromatography, run 1): 99.94% | final HPLC purity (purification step, Ion-Pairing Chromatography, run 2): 99.91% | step yield (purification step, Isolation Yield, run 1): 98% | step yield (purification step, Isolation Yield, run 2): 91% | step yield (purification step, Yield (3 steps)): 55%
